According to article PMC3158767:
No constants are given. Whether binding was seen depends on the method and setting. Binding seen in cells or lysates may run through a third protein. Binding can be weak; no strength is given.

Biological target: T1, lamin B1 (endogenous, PC12 cells) (rat (endogenous in PC12)) (UniProt P70615)
T1 sequence: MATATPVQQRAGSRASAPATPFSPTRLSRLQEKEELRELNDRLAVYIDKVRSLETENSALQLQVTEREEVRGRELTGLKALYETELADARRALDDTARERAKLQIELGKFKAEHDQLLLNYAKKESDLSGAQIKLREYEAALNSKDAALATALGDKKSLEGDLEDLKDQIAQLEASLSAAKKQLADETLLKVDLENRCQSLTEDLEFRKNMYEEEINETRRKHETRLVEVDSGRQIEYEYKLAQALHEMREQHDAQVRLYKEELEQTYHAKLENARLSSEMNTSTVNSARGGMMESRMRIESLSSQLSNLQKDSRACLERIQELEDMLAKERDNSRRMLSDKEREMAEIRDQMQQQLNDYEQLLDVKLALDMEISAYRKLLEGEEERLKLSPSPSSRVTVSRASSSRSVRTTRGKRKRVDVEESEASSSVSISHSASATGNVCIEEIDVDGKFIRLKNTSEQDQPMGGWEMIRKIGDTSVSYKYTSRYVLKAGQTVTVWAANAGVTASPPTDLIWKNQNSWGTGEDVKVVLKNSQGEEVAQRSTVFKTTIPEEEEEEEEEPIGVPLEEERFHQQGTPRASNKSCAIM
Assay: co-IP; PC12 protein extracts incubated 1 h at 4°C with anti-lamin B1 antibody bound to protein G-agarose; washed in RIPA buffer; western blot with anti-lamin B1 and anti-Dp71 (H4); irrelevant antibody (IgG0) as control

binding: binds
Substance: dystrophin Dp71 (endogenous, PC12 cells) (rat (endogenous in PC12))
